In assay [1] the target is HNRNPA2B1 (heterogeneous nuclear ribonucleoprotein A2/B1) (mouse (endogenous in ADSCs)) (UniProt O88569). In words: co-IP; lysates (150 mM NaCl, 0.5% IGEPAL CA-630, 50 mM Tris-HCl pH 8.0) of miR-369 transfected Dicer1-KO ADSCs; immunoprecipitation with primary antibody on Protein G Sepharose, western blot with the counterpart antibody; controls miR-369-5p and Dicer1 wild-type ADSCs.

By UniProt entry, the sequences of proteins in these tests, tags left out.
UniProt O88569: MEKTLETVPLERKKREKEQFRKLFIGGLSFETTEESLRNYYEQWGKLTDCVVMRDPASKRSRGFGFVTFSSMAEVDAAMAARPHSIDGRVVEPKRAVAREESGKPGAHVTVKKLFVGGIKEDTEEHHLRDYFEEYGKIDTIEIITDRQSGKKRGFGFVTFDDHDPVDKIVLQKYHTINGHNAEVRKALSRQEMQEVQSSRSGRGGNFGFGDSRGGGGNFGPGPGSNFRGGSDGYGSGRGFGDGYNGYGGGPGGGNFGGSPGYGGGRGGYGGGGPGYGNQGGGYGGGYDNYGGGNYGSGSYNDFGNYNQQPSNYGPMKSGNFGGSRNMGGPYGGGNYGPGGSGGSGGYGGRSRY
UniProt Q61584: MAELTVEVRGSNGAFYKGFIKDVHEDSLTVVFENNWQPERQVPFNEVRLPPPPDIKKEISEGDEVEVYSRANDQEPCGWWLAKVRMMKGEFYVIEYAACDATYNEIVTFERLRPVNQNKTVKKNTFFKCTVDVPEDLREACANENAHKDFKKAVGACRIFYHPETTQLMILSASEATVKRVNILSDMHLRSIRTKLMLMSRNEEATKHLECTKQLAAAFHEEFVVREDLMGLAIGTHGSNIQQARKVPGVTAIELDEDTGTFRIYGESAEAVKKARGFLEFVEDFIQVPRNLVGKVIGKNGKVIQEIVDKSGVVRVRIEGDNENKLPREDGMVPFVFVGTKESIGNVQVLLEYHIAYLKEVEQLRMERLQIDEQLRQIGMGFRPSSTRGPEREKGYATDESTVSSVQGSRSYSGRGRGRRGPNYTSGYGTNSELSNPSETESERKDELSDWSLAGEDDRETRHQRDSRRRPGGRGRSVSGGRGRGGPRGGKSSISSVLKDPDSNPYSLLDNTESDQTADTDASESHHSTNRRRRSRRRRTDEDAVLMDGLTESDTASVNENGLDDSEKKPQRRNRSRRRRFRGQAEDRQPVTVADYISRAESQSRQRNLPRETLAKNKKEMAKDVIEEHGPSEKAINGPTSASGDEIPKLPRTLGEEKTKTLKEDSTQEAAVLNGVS

Assay [2] has as its target Argonaute 1 (AGO1) (mouse (endogenous in ADSCs)) (UniProt Q8CJG1). The assay is described as above.

No constants are given. Whether binding was seen depends on the method and setting. Binding seen in cells or lysates may run through a third protein. Some results given as binding are weak or reduced against the parent protein; the word gives no strength.

For “Argonaute 1 (AGO1) (from UniProt Q8CJG1 1-857)”, the binding result in assay [1] is “binds”. For “HNRNPA2B1 (heterogeneous nuclear ribonucleoprotein A2/B1) (from UniProt O88569 1-353)”, the binding result in assay [2] is “binds”. “fragile X mental retardation-related protein 1 (FXR1) (from UniProt Q61584 1-677)”: the binding entry in assay [2] is “binds”.
